Experimental data reported in the supplement of paper PMC12578635.
± gives the standard deviation of the averaged measurements. This is one part of the list. Many values rest on one well or one pass, so single values are uncertain.

Test system: RAW 264.7 macrophages infected with S. aureus JE2-lux
Test: host macrophage viability (CellTiter-Fluor) relative to DMSO vehicle; higher = more viable host cells
Conditions: 10 µM; treatment time 4 h; gentamicin 50 µg/ml

| SMILES | host macrophage viability [%] |
| --- | --- |
| O=C(CC1C(=O)Nc2ccccc2N1C(=O)c1cccs1)Nc1ccc(Cl)c(Cl)c1 (stereo not drawn) | 119 |
| CN(C)S(=O)(=O)c1ccc(C(=O)Nc2sc3c(c2-c2nc4ccccc4s2)CCCC3)cc1 | 98.7 |
| CCOc1cc(C(=O)NCC(=O)N/N=C/c2ccccc2)cc(OCC)c1OCC | 101 |
| COC(=O)c1cc(C)sc1NC(=O)CC1Sc2ccc(C(F)(F)F)cc2NC1=O (stereo not drawn) | 122 |
| Cc1cc(Nc2nc(C(=O)N3CCC(N4CCCCC4)CC3)cc3occc23)ccc1Br | 106 |
| CCC(C(=O)Nc1c(C(=O)Nc2ccc([N+](=O)[O-])cc2)oc2ccccc12)c1ccccc1 (stereo not drawn) | 108 ± 26 |
| COc1ccccc1CNC(=O)c1nccn1Cc1ccccc1Cl | 109 |
| O=C1Nc2c(Cl)cc(Cl)cc2/C1=N\NC(=O)c1ccccc1O | 121 |
| CCOC(=O)c1cnn2c(C)c(Cc3ccccc3)c(C)nc12 | 107 |
| CCOc1ccc(C(=O)NCC(c2ccc3c(c2)CCN3C)N2CCCCC2)cc1 (stereo not drawn) | 116 |
| Cn1cnnc1SCC(=O)Nc1nnc(-c2ccc(Br)cc2)s1 | 103 ± 11 |
| Cc1[nH]c(=O)[nH]c(=O)c1NC(=O)CSc1ccc(-c2ccc(F)cc2)nn1 | 79.3 |
| NS(=O)(=O)c1ccc(NC(=O)CCn2cnc3onc(-c4ccccc4Cl)c3c2=O)cc1 | 121 |
| O=C(Nc1ccccc1F)N1CCc2nc(N3CCCC3)[nH]c(=O)c2C1 | 88.4 |
| CC(C)N1CCn2c(nc3cc(NC(=O)CCc4ccccc4)ccc32)C1 | 102 |
| O=C(CSCc1ccccc1)NCc1n[nH]c(=O)c2ccccc12 | 107 |
| CC1CC(C)CN(S(=O)(=O)c2ccc(C(=O)Nc3ccc4ncsc4c3)cc2)C1 (stereo not drawn) | 116 |
| Cc1ccc(-c2noc(-c3cn(Cc4ccc(N)cc4)cn3)n2)cc1 | 111 |
| COc1ccc(-c2nnc3sc(-c4ccc(Br)o4)nn23)cc1 | 99.9 |
| O=C(NCc1nnnn1-c1ccc(F)cc1)Nc1ccc2c(c1)OCO2 | 108 |
| Cc1cccn2c(=O)nc(SCC(=O)N3CCCCCC3)nc12 | 113 |
| O=C(CSc1nc2[nH]ncc2c(=O)[nH]1)N1CCC(Cc2ccccc2)CC1 | 105 |
| O=C(Nc1cccc(C(=O)N2CCOCC2)c1)c1cnn(-c2ccc(F)cc2)c1 | 122 |
| Cc1nn2c(=O)cc(CSc3nnc(-c4ccc5c(c4)OCO5)o3)nc2s1 | 120 |
| NC(=O)c1ccccc1NC(=O)c1ccc2nncn2c1 | 115 |
| Cc1nn(C)c(C)c1CNC(=O)c1cc(-c2ccccn2)nc2ccccc12 | 95.5 |

| SMILES | host macrophage viability [%] |
| --- | --- |
| O=C1NC(=O)/C(=C/c2ccc(C(=O)Nc3ccc(C(=O)O)cc3)cc2)S1 | 117 |
| N#CC1=C(N)OC2=C(C(=O)CCC2)C1c1ccc(-c2cccc([N+](=O)[O-])c2)o1 (stereo not drawn) | 105 |
| O=c1nc2s/c(=C/c3ccccn3)c(=O)n2nc1-c1ccccc1 | 121 |
| COC(=O)c1ccccc1NC1SC(=O)N(c2cccc(C)c2)C1=O (stereo not drawn) | 121 |
| Cc1nc(-n2nc(C)c(CCC(C)C)c2O)sc1C(=O)Nc1ccc(Cl)cc1 | 117 |
| Cc1onc(-c2ccncc2)c1C(=O)N1CCn2c(C)ccc2C1C(C)C (stereo not drawn) | 99.3 |
| O=C(NCc1ccc2c(c1)OCO2)c1cnc2ccc(F)cc2c1O | 123 |
| CC(C)(C)c1ncc(C(=O)NC(c2ccccc2)c2cccnc2)cn1 (stereo not drawn) | 114 |
| COc1ccc2c(c1OC)C(=O)OC2Nc1ccc(CC(=O)O)cc1 (stereo not drawn) | 134 |
| Cc1cnc(C(=O)Nc2ccc(C(=O)NC3CC3)cc2)cn1 | 115 |
| COc1cccc(NC(=O)N2CCCC(C(=O)NC3CCCCC3C)C2)c1 (stereo not drawn) | 112 |
| CC(NC(=O)c1ccc2c(=O)[nH]c3c(-c4cccc(C(F)(F)F)c4)nnn3c2c1)c1ccc(F)cc1 (stereo not drawn) | 128 |
| Cc1ccc([N+](=O)[O-])c(OCCSc2nnc3sc4ccccc4n23)c1 | 118 ± 13 |
| CCOc1ccc2c(c1)SC(CC(=O)Nc1sc(C)cc1C(=O)OC)C(=O)N2 (stereo not drawn) | 132 |
| CCn1cc(SCC(=O)NCc2ccccc2)c2ccccc21 | 100 |
| COc1ccc(OC)c(CNC(=O)Cn2cccc2-c2nc(-c3ccc(C)cc3)cs2)c1 | 107 |
| CCOc1ccc2ccccc2c1C(=O)Nc1c2c(nn1-c1ccc(F)cc1)CS(=O)C2 (stereo not drawn) | 127 |
| Oc1cccc(C2=NN3C(C2)c2cc(Cl)ccc2OC3c2cccnc2)c1 (stereo not drawn) | 133 |
| COc1cccc(NC(=O)N2CCC(C(=O)NCC3CCCCC3)CC2)c1 | 109 |
| COc1cccc(OC)c1C(=O)Nc1nc2c(C)c(C)ccc2s1 | 124 |
| CCOC(=O)c1cc([N+](=O)[O-])sc1NC(=O)c1ccc(S(=O)(=O)N2CC(C)CC(C)C2)cc1 (stereo not drawn) | 103 ± 0.63 |
| Cc1cccc(NC(=O)c2nn(C)c3c2COc2ccccc2-3)n1 | 109 |
| Cn1c(NC(=O)C2CCCC2)cc(=O)n(C)c1=O | 117 |
| COc1ccc(-c2nsc(SCC(=O)NCc3ccco3)n2)cc1 | 105.6 ± 0.78 |
| CCS(=O)(=O)Nc1ccc(C2=NN(C(C)=O)C(c3ccc(Cl)o3)C2)cc1 (stereo not drawn) | 119 |
| CCOc1ccc2ccccc2c1C(=O)NCc1n[nH]c(=O)c2ccccc12 | 114 |

| SMILES | host macrophage viability [%] |
| --- | --- |
| CCCn1c(=O)c(=O)[nH]c2cc(-c3noc(CCNS(=O)(=O)c4ccc(C)cc4)n3)ccc21 | 122 |
| Cc1nnc(N2CCC(C(=O)O)CC2)c2nn(-c3ccccc3)c(C)c12 | 116 |
| Cc1ccc2[nH]c3nc(SCC(=O)Nc4ccc(S(=O)(=O)NC5CC5)cc4)nnc3c2c1 | 108 |
| CC(=O)Nc1ccc(S(=O)(=O)N2CCN=C2SCc2cccc(F)c2)cc1 | 120 |
| Cc1c(C)n(-c2ccc(F)c(F)c2)c2ncnc(NCc3ccc(F)cc3Cl)c12 | 100 |
| CCc1ccc(-c2noc3c(=O)n(CCC(=O)Nc4cc(C)ccc4C)cnc23)cc1 | 106 |
| O=C(NC1CCS(=O)(=O)C1)c1cc2n(n1)CCCN(Cc1ccc(F)cc1)C2=O (stereo not drawn) | 105 |
| Cc1cc(C)c2cc(CNCCCN3CCOCC3)c3nn(C)c(=O)n3c2c1 | 134 |
| N#CC(C(=O)c1ccc(Oc2ccccc2)cc1)=C1Nc2ccccc2N1 | 102 |
| CC(=O)Nc1cccnc1-c1ccc(C(=O)NCCC2=CCCCC2)cc1 | 103 |
| Cc1ccc(C2=NC(C)(C)N=C2SCC(=O)Nc2ccccc2)cc1 | 136 |
| Cc1nc(NC(c2ccccc2)c2ccccc2)c2nnn(Cc3ccccc3)c2n1 | 104 |
| O=C(CCC(=O)N1CCc2ccccc21)Nc1noc2ccccc12 | 100 |
| COCCNc1c(-c2cccc(F)c2)nc2sc3cc(OC)ccc3n12 | 116 |
| COC(=O)c1ccccc1NC(=O)CSc1nccnc1N1CCSCC1 | 100 |
| Cc1ccc(C)c(S(=O)(=O)Nc2ccc3nnc(C)n3n2)c1 | 125 |
| Cc1cccc(NC(=O)Cn2cc(S(=O)(=O)Cc3ccccc3F)c3ccccc32)n1 | 108 |
| COC(=O)c1ccc(CSc2nncc(=O)n2N)o1 | 114 |
| COc1cccc2cc(C(=O)Nc3cccc(NC(=O)c4ccccn4)c3)c(=O)oc12 | 117 |
| Cc1ccccc1C(NC(=O)c1cc2c([nH]c1=O)CCCCC2)c1ccncc1 (stereo not drawn) | 101 |
| CCSc1ccccc1C(=O)N1CCN(c2nc3c(OC)ccc(C)c3s2)CC1 | 100 |
| Cc1ccc(S(=O)(=O)c2cnc(SCC(=O)Nc3ccccc3)[nH]c2=O)cc1C | 129 |
| O=C(NCc1cccs1)C1CCCN(C(=O)Nc2ccc(F)cc2)C1 (stereo not drawn) | 108 |
| O=C(Nc1nc2c(s1)CCc1ccccc1-2)C1CC1 | 124 |
| Clc1ccc(CSc2nnc3ccc(-c4ccncc4)nn23)cc1 | 114 |
| Cc1sc2c(c1C)c(=O)nc1scc(CC(=O)O)n12 | 119 |

| SMILES | host macrophage viability [%] |
| --- | --- |
| O=C(CSc1ncnc2c1sc1nc3ccccc3cc12)N1CCOCC1 | 113 |
| O=C(N/N=C/c1cc([N+](=O)[O-])ccc1O)c1ccc([N+](=O)[O-])cc1 | 103 ± 1.7 |
| C=C(C)Cn1c(SCCN2CCOCC2)nc2c1c(=O)[nH]c(=O)n2C | 122 |
| CCc1cnc2c(c1OC)c(=O)n(CC(=O)NCc1ccccc1)c(=O)n2C | 118 |
| Cc1cc(C)cc(/N=c2\oc3c(C)ncc(CO)c3cc2C(N)=O)c1 | 127 |
| NC1=NN(c2ccccc2)C(=O)/C1=N/Nc1ccc(-c2ccccc2)cc1 | 83.1 |
| O=C(NCc1cccnc1)C(=O)NCC(c1ccco1)N1CCN(c2ccc(F)cc2)CC1 (stereo not drawn) | 116 |
| CC(C)(C)n1nc2c(c1NC(=O)c1ccc(Br)cc1)CS(=O)C2 (stereo not drawn) | 124 |
| COc1cc(C2NC(=O)NC3=C2C(=O)N(Cc2ccc(F)cc2)C3)cc(OC)c1OC (stereo not drawn) | 118 |
| Cc1ccc(-c2cnc3ccccc3n2)cc1NC(=O)CN1CC(C)OC(C)C1 (stereo not drawn) | 99.9 |
| Cc1nc(SCC(=O)c2ccc3c(c2)OCCO3)c2c3c(sc2n1)CCC3 | 124 |
| COc1cc(NC(=O)Nc2c(-c3cccnc3)[nH]c3ccc(Cl)cc23)cc(OC)c1 | 94.6 |
| CC1CCN(CC(O)Cn2c3ccccc3c3ccccc32)CC1 (stereo not drawn) | 114 |
| O=C1CC(c2ccccc2)=NN1c1ccc2ccccc2c1 | 110 ± 13 |
| O=C(NC1CCN(C(=O)CNCc2ccc3c(c2)OCO3)CC1)c1ccccc1F | 113 |
| N=C1NC(=O)C(CC(=O)Nc2ccc(N3CCOCC3)cc2)S1 (stereo not drawn) | 124 |
| CC(=O)N1N=C(c2ccc(NS(C)(=O)=O)cc2)CC1c1ccc2c(c1)OCO2 (stereo not drawn) | 104 |
| CCOc1cccc2sc(NNC(=O)c3ccccc3)nc12 | 110 ± 8.9 |
| N#C/C(C(=O)NCCc1ccccc1)=C1/N=C(NC(=O)c2cccs2)c2ccccc21 | 135 |
| O=C(NC1CCCCC1)NC1(C(=O)Nc2ccc3c(c2)OCCO3)CCCCC1 | 129 |
| COc1ccc(S(=O)(=O)NCc2ccco2)cc1[N+](=O)[O-] | 109 |
| CCOC(=O)c1nn(-c2ccccc2)c(=O)c2c(NC(=O)C(C)Oc3ccccc3)scc12 (stereo not drawn) | 114.6 ± 0.95 |
| CC1=C(C(=O)OCc2ccccc2)C(c2ccc(Cl)cc2)C(C#N)=C(N)O1 (stereo not drawn) | 109 |
| O=C(NCc1ccc2c(c1)OCO2)C1CCCN1C(=O)Nc1ccc(Cl)cc1 (stereo not drawn) | 114 |
| Cc1n[nH]c(SCCNCc2cc3c(C)nn(-c4ccc(F)cc4)c3[nH]c2=O)n1 | 94.9 |

Compounds shown so far that contain a cyano group (four):

| SMILES | host macrophage viability [%] |
| --- | --- |
| N#CC1=C(N)OC2=C(C(=O)CCC2)C1c1ccc(-c2cccc([N+](=O)[O-])c2)o1 (stereo not drawn) | 105 |
| N#CC(C(=O)c1ccc(Oc2ccccc2)cc1)=C1Nc2ccccc2N1 | 102 |
| N#C/C(C(=O)NCCc1ccccc1)=C1/N=C(NC(=O)c2cccs2)c2ccccc21 | 135 |
| CC1=C(C(=O)OCc2ccccc2)C(c2ccc(Cl)cc2)C(C#N)=C(N)O1 (stereo not drawn) | 109 |
